Measured values taken from article PMC8143644.
Results are given in words; binding and its absence hold for the method and conditions named. In cells and extracts the contact can be indirect. These calls come from enrichment with a bait or labelling near it, and not all partners need be listed. Tags and fused reporters may be left off the sequences shown.

Tests used:
Assay in all cases: affinity purification with mass spectrometry; whole ovaries of flies expressing GFP-tagged baits lysed in 50 mM Tris-HCl pH 7.5, 100 mM NaCl, 250 mM sucrose, 0.1% Nonidet P-40, 1 mM DTT; RNase A/T1 treated; GFP-TRAP MA beads, 1 h at 4 °C; tag alone as control; label-free LC-MS/MS (all six baits) and dimethyl labeling MS (Hrp48, Vas)
[1] = molecular target: T1, Stau-GFP (Drosophila melanogaster) (UniProt P25159)
T1 sequence: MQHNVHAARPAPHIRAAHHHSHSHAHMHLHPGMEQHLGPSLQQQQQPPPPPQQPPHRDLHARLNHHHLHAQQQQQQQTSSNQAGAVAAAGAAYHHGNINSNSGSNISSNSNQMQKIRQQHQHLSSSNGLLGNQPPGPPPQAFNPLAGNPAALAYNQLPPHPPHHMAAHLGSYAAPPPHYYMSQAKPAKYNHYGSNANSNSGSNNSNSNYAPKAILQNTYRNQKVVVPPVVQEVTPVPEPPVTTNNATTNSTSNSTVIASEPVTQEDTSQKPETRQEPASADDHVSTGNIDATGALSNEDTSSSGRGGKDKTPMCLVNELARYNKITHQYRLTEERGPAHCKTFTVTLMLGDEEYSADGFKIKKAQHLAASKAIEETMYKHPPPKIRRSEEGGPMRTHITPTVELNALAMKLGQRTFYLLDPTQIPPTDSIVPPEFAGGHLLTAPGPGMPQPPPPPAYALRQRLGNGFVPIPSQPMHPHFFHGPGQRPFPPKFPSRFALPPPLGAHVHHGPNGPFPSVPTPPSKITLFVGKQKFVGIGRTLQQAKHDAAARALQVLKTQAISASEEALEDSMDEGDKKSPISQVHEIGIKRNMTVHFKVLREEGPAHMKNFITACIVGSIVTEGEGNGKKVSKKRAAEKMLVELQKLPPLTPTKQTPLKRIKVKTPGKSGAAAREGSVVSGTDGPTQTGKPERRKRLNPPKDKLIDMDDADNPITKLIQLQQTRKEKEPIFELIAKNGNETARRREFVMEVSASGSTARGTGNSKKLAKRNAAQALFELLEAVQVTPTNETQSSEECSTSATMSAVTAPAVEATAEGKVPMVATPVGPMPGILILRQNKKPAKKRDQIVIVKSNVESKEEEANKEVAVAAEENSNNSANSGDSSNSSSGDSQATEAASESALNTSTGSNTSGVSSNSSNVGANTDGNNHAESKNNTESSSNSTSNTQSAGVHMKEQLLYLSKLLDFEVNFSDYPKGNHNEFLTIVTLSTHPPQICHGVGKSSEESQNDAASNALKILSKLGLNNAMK

[2] = molecular target: T2, Nos-GFP (Drosophila melanogaster) (UniProt P25724)
T2 sequence: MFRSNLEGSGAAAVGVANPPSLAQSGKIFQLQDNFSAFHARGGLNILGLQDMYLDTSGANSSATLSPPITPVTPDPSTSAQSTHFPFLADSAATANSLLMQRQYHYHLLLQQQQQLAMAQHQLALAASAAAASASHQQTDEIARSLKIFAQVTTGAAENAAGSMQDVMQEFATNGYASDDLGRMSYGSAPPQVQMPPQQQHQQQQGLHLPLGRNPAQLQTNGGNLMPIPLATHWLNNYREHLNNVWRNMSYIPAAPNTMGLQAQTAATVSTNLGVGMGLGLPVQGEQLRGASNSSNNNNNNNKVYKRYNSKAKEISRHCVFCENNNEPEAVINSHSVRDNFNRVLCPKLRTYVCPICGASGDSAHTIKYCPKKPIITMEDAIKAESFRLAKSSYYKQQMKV

[3] = molecular target: T3, Vas-GFP (Drosophila melanogaster), P09052; conditions: remark: other sources report otherwise
T3 chain: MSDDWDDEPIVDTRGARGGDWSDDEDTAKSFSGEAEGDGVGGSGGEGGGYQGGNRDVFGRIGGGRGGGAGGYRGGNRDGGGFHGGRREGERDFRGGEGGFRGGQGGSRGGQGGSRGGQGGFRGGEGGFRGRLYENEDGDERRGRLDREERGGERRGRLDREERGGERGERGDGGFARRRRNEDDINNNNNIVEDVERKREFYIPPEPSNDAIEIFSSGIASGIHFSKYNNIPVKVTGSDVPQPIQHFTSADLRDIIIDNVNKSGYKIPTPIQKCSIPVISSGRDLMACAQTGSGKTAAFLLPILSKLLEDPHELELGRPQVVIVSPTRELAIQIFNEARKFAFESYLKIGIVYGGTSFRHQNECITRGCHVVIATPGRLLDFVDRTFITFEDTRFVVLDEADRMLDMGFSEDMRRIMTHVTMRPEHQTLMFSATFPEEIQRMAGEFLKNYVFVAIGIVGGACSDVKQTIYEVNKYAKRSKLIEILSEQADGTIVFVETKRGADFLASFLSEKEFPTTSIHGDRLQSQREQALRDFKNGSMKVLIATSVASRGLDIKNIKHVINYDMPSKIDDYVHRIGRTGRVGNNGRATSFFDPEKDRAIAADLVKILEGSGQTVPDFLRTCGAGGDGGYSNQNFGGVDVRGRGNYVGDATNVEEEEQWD

B1: Loquacious (endogenous) (protein, UniProt Q9VJY9 1-465)
chain: MDQENFHGSSLPQQLQNLHIQPQQASPNPVQTGFAPRRHYNNLVGLGNGNAVSGSPVKGAPLGQRHVKLKKEKISAQVAQLSQPGQLQLSDVGDPALAGGSGLQGGVGLMGVILPSDEALKFVSETDANGLAMKTPVSILQELLSRRGITPGYELVQIEGAIHEPTFRFRVSFKDKDTPFTAMGAGRSKKEAKHAAARALIDKLIGAQLPESPSSSAGPSVTGLTVAGSGGDGNANATGGGDASDKTVGNPIGWLQEMCMQRRWPPPSYETETEVGLPHERLFTIACSILNYREMGKGKSKKIAKRLAAHRMWMRLQETPIDSGKISDSICGELEGEPRSSENYYGELKDISVPTLTTQHSNKVSQFHKTLKNATGKKLLKLQKTCLKNNKIDYIKLLGEIATENQFEVTYVDIEEKTFSGQFQCLVQLSTLPVGVCHGSGPTAADAQRHAAQNALEYLKIMTKK
Q: How did the binding [1] turn out when B1 was run?
A: binds

B2: CG13090 (Ubiquitin activating enzyme 4) (protein, UniProt Q9VLJ8 1-453)
chain: MMESEVDSERTMLKREIAELRAALNQKEQCLRELDSLFSFATRPEQEVVGNDLESPDVAVHTKLTNDDIARYSRQLILPDFGVQGQLKLKNSSVLIVGLGGLGCPAAQYLAAAGCGHLGLVDYDEVERSNFHRQILHSEDRCGMSKAESARIALLELNPHCEIQCHSRMLYPHNAMHIIRGYDVVLDCTDNVPTRYLLSDACVMLSKPLVSGSALKMDGQLTVYNYANGPCYRCIFPVPPPPEAVTNCGDGGVLGAVTGTIGAMQALEAIKVIVGMGDVLAGRLLIFDGGSGVFRNIRIRSKRPNCHMCSAQPLITELINYEMFCGMHATDKNNPMLLLSTDERLSVEDYQQKIQAQPHLLIDVRPTAEFEICQLPEAVNVPLVEILDDSYLKRLGKQLEDKELPIVLVCRRGNDSQIAVQHLRNRFPTHFVRDLIGGLHAWTNSVDPSFPIY
Q: B2 was tested. Which binding [2] did it give?
A: binds

B3: Spindle-E, Q9VF26 1-1434 (protein)
chain: MDQEVMDFFDFSKELKRVAAAPQGYISSDPRLMATKFKSSEVPNRELIGTDYVSKIVAKEKCLLNGTLLNEQPQGKRIRTLDDLDTDDEGEETEIRRDDEYYKKFRFNLNRDKNLSIYAKREEILAAINAHPVVIIKGETGCGKTTQVPQYILDEAYKSGKYCNIVVTQPRRIAAISIANRVCQEREWQQNTVCSFQVGLHRPNSLEDTRLLYCTTGVLLNNLINNKTLTHYTHIVLDEVHERDQNMDFLLIVVRRLLATNSRHVKIILMSATIDAKELSDYFTTTNSIPPVITTNHRRKHSIEKFYRDQLGSIIWNEEDVGHQQVPEINKHGYRAAVKIIVIIDNMERKAAIQSRQSYDEALRYGAVLIFLPGIYEIDTMAENLTCMLENDPNIKVSIVRCFSLMTPENQRDVFNPPPPGFRKIILTTNIAESSITVPDVSYVIDFCLAKVKVTDTASSFSSLRLTWASKANCRQRAGRVGRLRSGRVYRMVNKHFYQREMPEFGIPEMLRLPLQNSVLKAKVLNMGSPVEILALALSPPNLSDIHNTILLLKEVGALYLTVDGIYDPLDGDLTYWGTIMSRLPLDTRQSRLIILGYIFNMLEEAIIIAAGLSTPGLFAHEGGRSQLGDSFWMHYIFSDGSGSDLVAIWRVYLTYLNIVENGHDQESAIRWAKRFHVSLRSLKEIHLLVQELRVRCTHLGLIPFPVNPNQMMDDREKAIMLKVIIAGAFYPNYFTRSKESCADTDRNIYQTISGHDPCRTVYFTNFKPAYMGELYTRRIKELFQEVRIPPENMDVTFQEGSQKVFVTFKQDDWIEGSSKYVPVSGRVQSEVYKAVMMRQNRVERPIHIMNPSAFMSYVQQRGIGDVIEGRWIPPTKPLNVELLALPSVFDKTISGSITCIVNCGKFFFQPQSFEECIRNMSEIFNAPQQLRNYVTNASAIAKGMMVLAKRDSYFQRATVIRPENQSNRQPMFYVRFIDYGNCTLLPMQLMRLMPRELTEQYGDLPPRVFECRLAMVQPSSVVSGNNRWSTAANDMLKTVAQCGLIDIEVYSLFNNVAAVLIHMRDGIINDKLVELMLCRRSDEDYMSRKDHDFRLRRQESARNLSTAQRQQINEEYLRSCQLPQDHDLPPPPLEKCKTVVMLKGPNSPLECTMRSITRVGLSKRVNIDHLSVNALLLDADPQDHHDHLIVAHEIAESRNGQTLTARGTTLMPNVQGFGALMVMLFSPTMQLKCNKEGTSYVSVLGGLGCDPDTNEPYFAEHDVLINLDVNILEDDVILINQIRYYIDSVFFNFKEENNPAVSVNERVSIYTQLRSLINRLLCKDRRYIERNMSNADFEWETNPELPLPNEPFGKRAIFPMHSLTELQEEDTGRLVQLRENCSMLHKWRNFEGTLPHMTCKLCNQLLESVPQLRLHLLTILHRDREKQIDYCNQ
Q: With B3 as the binder, how does the binding [3] read?
A: binds
